PubChem BioAssay AID1508597 | Cure First, 2020
Shown is a random part of the about 2,100 reagents, in one setting of the screen. 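Calls flag viability under 80% in either arm, not effects specific to rucaparib; the reference for percent is not stated.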 Some reagents were tested in more than one well and are listed for each. The record does not give: the 100% reference.

- Assay: 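Knock-downs altering ovarian cancer cell survival with or without PARP inhibitor rucaparib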 (primary screen)
- Cell system: human ovarian carcinoma lines grown from tumours: OCI-P5x (papillary serous) and OCI-C5x (clear cell)
- Reagent: siRNA pool against human genes, 1.25 pmol siRNA per well
- Duration: 72 h or 96 h, depending on the cell culture
- Conditions: rucaparib 20 µM (about IC30) or vehicle, present until read-out
- Rucaparib or vehicle: Rucaparib
- Cell line: OCI-C5x (clear cell)
- Measured: 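Luminescent ATP-based viability assay read 72 or 96 h after transfection, depending on culture, given as normalised percent viability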
- Direction: viability, normalised: higher = more viable cells remaining
- Rule for the call: 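a well counts as a hit if its normalised viability is under 80 percent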
- Meaning of the calls: active = viability under 80%; inactive = viability 80% or more

Gene | technical replicate | viability, normalised (%) | Call
PALB2 (partner and localizer of BRCA2) | 1 | 71.2 | active
PALB2 (partner and localizer of BRCA2) | 1 | 39.9 | active
PALB2 (partner and localizer of BRCA2) | 2 | 59.3 | active
PALB2 (partner and localizer of BRCA2) | 2 | 93.3 | inactive
PALB2 (partner and localizer of BRCA2) | 3 | 43.6 | active
PALB2 (partner and localizer of BRCA2) | 3 | 73.1 | active
SRC (SRC proto-oncogene, non-receptor tyrosine kinase) | 1 | 44.8 | active
SRC (SRC proto-oncogene, non-receptor tyrosine kinase) | 2 | 57 | active
SRC (SRC proto-oncogene, non-receptor tyrosine kinase) | 3 | 59 | active
TAOK2 (TAO kinase 2) | 1 | 66 | active
TAOK2 (TAO kinase 2) | 2 | 59 | active
TAOK2 (TAO kinase 2) | 3 | 71.6 | active
NRG1 (neuregulin 1) | 1 | 37.8 | active
NRG1 (neuregulin 1) | 2 | 31.4 | active
NRG1 (neuregulin 1) | 3 | 44.1 | active
DSCC1 | 1 | 78.1 | active
DSCC1 | 2 | 62.2 | active
DSCC1 | 3 | 60.8 | active
PRKAG1 (protein kinase AMP-activated non-catalytic subunit gamma 1) | 1 | 75.3 | active
PRKAG1 (protein kinase AMP-activated non-catalytic subunit gamma 1) | 2 | 75.4 | active
PRKAG1 (protein kinase AMP-activated non-catalytic subunit gamma 1) | 3 | 80.3 | inactive
FANCM (FA complementation group M) | 1 | 49.8 | active
FANCM (FA complementation group M) | 1 | 52.2 | active
FANCM (FA complementation group M) | 2 | 29.8 | active
FANCM (FA complementation group M) | 2 | 60.2 | active
FANCM (FA complementation group M) | 3 | 53.3 | active
FANCM (FA complementation group M) | 3 | 29.2 | active
CHMP6 (charged multivesicular body protein 6) | 1 | 54.2 | active
CHMP6 (charged multivesicular body protein 6) | 2 | 59.1 | active
CHMP6 (charged multivesicular body protein 6) | 3 | 47.6 | active
BLM (BLM RecQ like helicase) | 1 | 83.2 | inactive
BLM (BLM RecQ like helicase) | 1 | 66.5 | active
BLM (BLM RecQ like helicase) | 2 | 48.5 | active
BLM (BLM RecQ like helicase) | 2 | 80.8 | inactive
BLM (BLM RecQ like helicase) | 3 | 50.2 | active
BLM (BLM RecQ like helicase) | 3 | 83.7 | inactive
PARP10 (poly(ADP-ribose) polymerase family member 10) | 1 | 40.7 | active
PARP10 (poly(ADP-ribose) polymerase family member 10) | 2 | 39.8 | active
PARP10 (poly(ADP-ribose) polymerase family member 10) | 3 | 37.2 | active
FLT4 (fms related receptor tyrosine kinase 4) | 1 | 74.3 | active
FLT4 (fms related receptor tyrosine kinase 4) | 1 | 39.8 | active
FLT4 (fms related receptor tyrosine kinase 4) | 2 | 61.9 | active
FLT4 (fms related receptor tyrosine kinase 4) | 2 | 38.9 | active
FLT4 (fms related receptor tyrosine kinase 4) | 3 | 88.3 | inactive
FLT4 (fms related receptor tyrosine kinase 4) | 3 | 46.3 | active
CTPS1 (CTP synthase 1) | 1 | 40 | active
CTPS1 (CTP synthase 1) | 2 | 36.4 | active
CTPS1 (CTP synthase 1) | 3 | 42.1 | active
DLG1 (discs large MAGUK scaffold protein 1) | 1 | 46.9 | active
DLG1 (discs large MAGUK scaffold protein 1) | 2 | 69.6 | active
DLG1 (discs large MAGUK scaffold protein 1) | 3 | 57.1 | active
SIRT1 (sirtuin 1) | 1 | 30.5 | active
SIRT1 (sirtuin 1) | 1 | 91.8 | inactive
SIRT1 (sirtuin 1) | 2 | 77.9 | active
SIRT1 (sirtuin 1) | 2 | 32.8 | active
SIRT1 (sirtuin 1) | 3 | 28.3 | active
SIRT1 (sirtuin 1) | 3 | 96.4 | inactive

4 of these entries, set out differently.
Gene	technical replicate	viability, normalised (%)	Call
NRG1 (neuregulin 1)	3	44.1	active
DSCC1	1	78.1	active
DSCC1	2	62.2	active
DSCC1	3	60.8	active
